Data reported in patent US20150320773A1, “TREATMENT OF INFLAMMATION” (Vascular Biogenics Ltd., priority 2011, published 2015).
For at least one compound, name, drawing or mass did not settle the structure.

Legend:
THP-1 cells = test: Trans-well chemotaxis assay of THP-1 cells; format: cell-based, human; conditions: Wortmannin 1 μmol/L, Rapamycin 1.1 μmol/L, GW5074 1 μmol/L
[1] = system: Human monocyte-derived dendritic cells (DCs); test: cAMP accumulation assay; format: cell-based; conditions: 4 hours; VB-201 1-5 μg/ml; oxidized PAPC escalating doses; forskolin positive control
Description: Cells were incubated for 4 hours at 37° C. in the presence of the phosphodiesterase inhibitors IBMX (Calbiochem; 0.5 mM) and RO-20-1724 (Biomol; 0.5 mM) to prevent cAMP degredation. For the quantification of [^3H]cAMP formation, the incubation was terminated by removal of the medium and addition of 2.5% perchloric acid containing 0.1 mM unlabeled cAMP (Sigma), followed by neutralization with 4.2 M KOH and 1.85 M K2CO3.

Compound | chemotaxis of THP-1 cells in vitro (THP-1 cells) | intracellular cAMP levels [1]
CO[C@H]1C[C@@H]2CC[C@@H](C)[C@@](O)(O2)C(=O)C(=O)N2CCCC[C@H]2C(=O)O[C@H]([C@H](C)C[C@@H]2CC[C@@H](O)[C@H](OC)C2)CC(=O)[C@H](C)/C=C(\C)[C@@H](O)[C@@H](OC)C(=O)[C@H](C)C[C@H](C)/C=C/C=C/C=C/1C [Rapamycin, reference compound] | decrease chemotaxis of THP-1 cells | –
COC[C@H]1OC(=O)c2coc3c2[C@@]1(C)C1=C(C3=O)[C@@H]2CCC(=O)[C@@]2(C)C[C@H]1OC(C)=O [Wortmannin, reference compound] | decrease chemotaxis of THP-1 cells | –
C=C[C@@]1(C)CC(=O)[C@]2(O)[C@@]3(C)[C@@H](O)CCC(C)(C)[C@@H]3[C@H](O)[C@H](OC(C)=O)[C@@]2(C)O1 [forskolin, reference compound] | – | increased
